Drawing on article PMC5102403, this text covers binding for seven molecules.

Chains of the proteins cited; added tags and fusions are not shown.
UniProt Q61457: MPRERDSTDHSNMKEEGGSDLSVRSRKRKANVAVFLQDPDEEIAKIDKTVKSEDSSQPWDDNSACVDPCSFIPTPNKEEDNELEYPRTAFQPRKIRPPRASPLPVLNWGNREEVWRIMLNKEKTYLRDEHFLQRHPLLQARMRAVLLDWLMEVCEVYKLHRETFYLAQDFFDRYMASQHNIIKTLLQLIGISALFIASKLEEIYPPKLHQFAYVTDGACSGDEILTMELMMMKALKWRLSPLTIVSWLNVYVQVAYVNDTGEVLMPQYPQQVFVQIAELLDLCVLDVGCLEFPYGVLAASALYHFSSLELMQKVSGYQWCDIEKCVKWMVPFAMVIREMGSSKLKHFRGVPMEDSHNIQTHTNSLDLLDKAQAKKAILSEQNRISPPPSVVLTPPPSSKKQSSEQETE

The target in this experiment is tagged (Flag-HA) cyclin E1 of knock-in mice, end of the tag not told for the experiment or an about 1:1 mixture of the N- and C-terminally tagged forms (mouse) (UniProt Q61457). Description: affinity purification with mass spectrometry; sequential immunoaffinity purification (anti-Flag M2 agarose, Flag peptide elution, then anti-HA 12CA5 beads) from embryonic brains, adult brains, spleens, thymuses and testes, about 1:1 mixture of organs of N- and C-tagged cyclin E1 knock-in mice; LC-MS/MS, 6-10 runs per organ; mock purifications from wild-type mice subtracted.

No constants are given. Whether binding was seen depends on the method and setting. In cells and extracts the contact can be indirect. Here binding means that the protein was enriched with, or labelled near, the bait; the list need not be complete. No binding means not detected with the bait.

B1: Mcm3, mouse (protein, UniProt P25206 1-812)
chain: MAGTVVLDDVELREAQRDYLDFLDDEEDQGIYQNKVRELISDNQYRLIVSVNDLRRKNEKRANRLLNNAFEELVAFQRALKDFVASIDATYAKQYEEFYIGLEGSFGSKHVSPRTLTSCFLSCVVCVEGIVTKCSLVRPKVVRSVHYCPATKKTIERRYSDLTTLVAFPSSSVYPTKDEENNPLETEYGLSVYKDHQTITIQEMPEKAPAGQLPRSVDVILDDDLVDKVKPGDRIQVVGTYRCLPGKKGCYTSGTFRTVLIACNVKQMSKDIQPAFSADDIAKIKKFSKTRSKDVFEQLARSLAPSIHGHDYVKKAILCLLLGGVERELENGSHIRGDINILLIGDPSVAKSQLLRYVLCTAPRAIPTTGRGSSGVGLTAAVTTDQETGERRLEAGAMVLADRGVVCIDEFDKMSDMDRTAIHEVMEQGRVTIAKAGIHARLNARCSVLAAANPVYGRYDQYKTPMENIGLQDSLLSRFDLLFIMLDQMDPEQDREISDHVLRMHQYRAPGEQDGDALPLGSSVDILATDDPDFTQDDQQDTRIYEKHDSLLHGTKKKKEKMVSAAFMKKYIHVAKIIKPTLTQESAAYIAEEYSRLRSQDSMSSDTARTSPVTARTLETLIRLATAHAKARMSKTVDLQDAEEAVELVQYAYFKKVLEKEKKRKKASEDESDLEDEEEKSQEDTEQKRKRRKTHAKDGESYDPYDFSEAETQMPQVHTPKTDDSQEKTDDSQETQDSQKVELSEPRLKAFKAALLEVFQEAHEQSVGMLHLTESINRNREEPFSSEEIQACLSRMQDDNQVMVSEGIVFLI
For the molecule B1, the binding entry is recorded as “binds”.

B2: p130, mouse (protein, UniProt Q64700 1-1135)
chain: MASGGNQSPPPPPAAAASSEEEEEDGDAADRAQPAGSPSHQIQQRFEELCSRLNMDEAARAEAWSSYRSMSESYTLEGNDLHWLACALYVACRKSVPTVSKGTAEGNYVSLTRILRCSEQSLIEFFNKMKKWEDMANLPPHFRERTERLERNFTVSAVIFKKYEPIFQDIFKYPQEEQPRQQRGRKQRRQPCTTSEIFHFCWVLFIYAKGNFPMISDDLVNSYHLLLCALDLVYGNALQCSNRKELVNPNFKGLSEDCHPKDSKASSDPPCVIEKLCSLHDGLVLEAKGIKEHFWKPYIRKLFEKKLLKGKEENLTGFLEPGNFGESFKAVNKAYEEYVLAAGNLDERVFLGEDAEEEVGTLSRCLSAASGTESAERTQMRDILQQHLDKSKALRVCTPLTGVRYVQENSPCVTPVSTAAHSLSRLHTMLSGLRNAPSEKLERILRSCSRDPTQAIADRLKEMYEIYSQHFQPDENFSNCAKEIANKHFRFAEMLYYKVLESVIEQEQKRLGDMDLSGVLEHDAFHRSLLACCLEVVAFSHKPPGNFPFIAEIFDVPHYHFYKVIEVFIRAEDGLCREVVKHLNQIEEQILDHLAWKTKSPLWDRIRDNENRVPTCEEVMPPQNLERTDEIYIAGSPLTPRRVGEVRADAGGLGRSITSPTTLYDRYSSPTVSTTRRRLFENDSPSEGSTSGRIPPQPLVNAVPVQNVPGETVSVTPVPGQTLVTMATATVTANNGQTVTIPVQGIANENGGITFFPVQVNVGGQAQAVAGSIQPLSAQALAGSLSSQQVTGTTLQVPGPVAIQQISPGGQQQNPGQPLTSSSIRPRKTSSLALFFRKVYYLAGVRLRDLCIKLDISDELRKKIWTCFEFSIIQCTELMMDRHLDQLLMCAIYVMAKVTKEDRSFQNIMRCYRTQPQARSQVYRSVLIKGKRRNSGSSESRSHQNSPTELNTDRASRDSSPVMRSNSTLPVPQPSSAPPTPTRLTGASSDVEEEERGDLIQFYNNIYRKQIQAFAMKYSQANAQTDTPPLSPYPFVRTGSPRRVQLSQSHPIYISPHNNEAMPSPREKIFYYFSNSPSKRLREINSMIRTGETPTKKRGILLDDGSESPAKRICPENHSALLRRLQDVANDRGSQ
For B2, the binding result is recorded as “binds”.

B3: Dbf4, mouse (protein, UniProt Q9QZ41 1-663)
chain: MNLETMRIHSKAPLPGGIQDRNEKNRPSLKSLKADNRLEKSKYKPLWGKIFYLDLPSITICEKLQKDIKELGGRVEEFLSKDISYFVSNKKEAKYAQTLGRVSPVPSPESAYTAETTSPHPSHDGSSFKSQDRVCLSRGKLLAEKAVKDHDFIPANSILSNALSWGVKILHIDDIRYYIEQKKKALSALKKSSASGKDAGKKAGPGIQKTRTGRLKKPFLKVEDVNRCYRPFYLQLPSLPCINYFLQKPCSPFDIEKSSSVQKQAQPKLRINMDGDKCGTPVQLQLKEKRKKGYCECCLQKYEDLETHLLSEKHRNFAQSNQYQVVDDIVSQLVFDFVEYGRDTPQKKRIRYSVGSLSSVSANVLKNTAPKEKPLLEPNFQKDVGESSGHLLKPNSQYEETQKPEEKHGFASEPTTYSSAGLKGCDRKPVSMFNASEPDPEQEYAQLPLRDSTPEHQVTEGRNDGEQRVDPAPGVSQSCGQVSHLSTESNLPQPQLAADITQLSAKDLQEKGFHVVIGHASDLVALNTSKEQLTMKARTPPCSPQEPHECDTENMENLPCGKIQRKVRMLLGQQKANAEPSAELDKKRTEYLPAHEDRTCGSPVQSLLDLFQTSEEKSEFLGFTGYTENSGICDVLDIWEEENSSTLLSTFFSSPSTSAFVGF
In the case of B3, the binding result was “no binding”.

B4: Cdc7, mouse (enzyme, UniProt Q9Z0H0 1-564)
chain: MEEPMAFSSLRGSDRCPADDSLKKYEQSVKLSGIKRDIEELCEAVPQLVNVFKIKDKIGEGTFSSVYLATAQLQEGHEEKIALKHLIPTSHPMRIAAELQCLTVAGGQDNVMGLKYCFRKNDHVVIAMPYLEHESFLDILNSLSFQEVREYMYNLFVALKRIHQFGIVHRDVKPSNFLYNRRLKKYALVDFGLAQGTRDTKIELLKFVQSEAQQEDCSRNKYHGVVGHKGLLSRPAPKTVDQQCTPKTSVKRSYTQVHIKQGKDGKERSVGLSVQRSVFGERNFNIHSSISHESPAEKLIKQSKTVDIISRKLATKKTAISTKAMNSVMRETARSCPAVLTCDCYGSDRVCSVCLSRRQQVAPRAGTPGFRAPEVLTKCPDQTTAIDMWSAGVIFLSLLSGRYPFYKASDDLTALAQIMTIRGSRETIQAAKAFGKSVLCSKEVPAQDLRALCERLRGLDSTTPRSASGPPGNASYDPAASKNTDHKASRVQAAQAQHSEDSLYKRDNDGYWSHPKDCTSNSEGWDSVPDEAYDLLDKLLDLNPASRITAEAALLHAFFKDMCS
For B4, the binding result is recorded as “binds”.

B5: Mcm4, mouse (protein, UniProt P49717 1-862)
chain: MSSPASTPSRRSSRRGRVTPTQSLRSEESRSSPNRRRRGEDSSTGELLPMPTSPGADLQSPPAQNALFSSPPQMHSLAIPLDFDVSSPLTYGTPSSRVEGTPRSGVRGTPVRQRPDLGSARKGLQVDLQSDGAAAEDIVPSEQSLGQKLVIWGTDVNVATCKENFQRFLQCFTDPLAKEEENVGIDITQPLYMQQLGEINITGEPFLNVNCEHIKSFSKNLYRQLISYPQEVIPTFDMAVNEIFFDRYPDSILEHQIQVRPFNALKTKSMRNLNPEDIDQLITISGMVIRTSQLIPEMQEAFFQCQVCAHTTRVEIDRGRIAEPCSCVHCHTTHSMALIHNRSFFSDKQMIKLQESPEDMPAGQTPHTIVLFAHNDLVDKVQPGDRVNVTGIYRAVPIRVNPRVSNVKSVYKTHIDVIHYRKTDAKRLHGLDEEAEQKLFSEKRVKLLKELSRKPDIYERLASALAPSIYEHEDIKKGILLQLFGGTRKDFSHTGRGKFRAEINILLCGDPGTSKSQLLQYVYNLVPRGQYTSGKGSSAVGLTAYVMKDPETRQLVLQTGALVLSDNGICCIDEFDKMNESTRSVLHEVMEQQTLSIAKAGIICQLNARTSVLAAANPIESQWNPKKTTIENIQLPHTLLSRFDLIFLMLDPQDEAYDRRLAHHLVSLYYQSEEQVEEEFLDMAVLKDYIAYAHSTIMPRLSEEASQALIEAYVNMRKIGSSRGMVSAYPRQLESLIRLAEAHAKVRFSNKVEAIDVEEAKRLHREALKQSATDPRTGIVDISILTTGMSATSRKRKEELAEALRKLILSKGKTPALKYQQLFEDIRGQSDTAITKDMFEEALRALADDDFLTVTGKTVRLL
B5: the binding entry is given as “binds”.

B6: p57^Kip2, mouse (protein, UniProt P49919 1-348)
chain: MGMSDVYLRSRTAMERLASSDTFPVIARSSACRSLFGPVDHEELGRELRMRLAELNAEDQNRWDFNFQQDVPLRGPGRLQWMEVDSESVPAFYRETVQVGRCRLQLGPRPPPVAVAVIPRSGPPAGEAPDGLEEAPEQPPSAPASAVVAEPTPPATPAPASDLTSDPIPEVTLVATSDPTPDPIPDANPDVATRDGEEQVPEQVSEQGEESGAEPGDELGTEPVSEQGEEQGAEPVEEKDEEPEEEQGAEPVEEQGAEPVEEQNGEPVEEQDENQEQRGQELKDQPLSGIPGRPAPGTAAANANDFFAKRKRTAQENKASNDVPPGCPSPNVAPGVGAVEQTPRKRLR
For B6, the binding entry is reported as “binds”.

B7: cyclin B3, mouse (protein, UniProt Q810T2 1-1396)
chain: MPPPLLPKRSKLETEKAQSNKITPREEQQSEKIGKSNHAASSSSSSTQGAVKRRSVFEDVTNASHSQCVQSKEDNIELKSHVSKRTKKGVGEVTQKKIKSSKMGHVTSLSNMEKEFILDIPNKPKTLTTEEPSVFQKTLVLNEEPATKETCLMRKTLKSCAFHQETLLMEKPLTLLVETEDYNEFDTELMTSKKKDKPEDPTIIEEMTDLKKSVIRKVTLTSSPLWLKNKHVVQEEKPVIQEKSSFKRISLVSNVVTTKEKPPVKKPHFRKKKPTTEMKSLLQEPSLEEKYNTQEDASILKKPQVLQENTNNKDATLTEPVTFKGKHSANEATHTKKPSSSKNNPDPQGKGTNLRPLRVHPVTYENEPMSSKKSTTKKKDSHFHGPSVLPDKHSPQMEVSTVKKSLALPNPTTEEKMLHFPVATVLEKQHNMGEAPCLKKPSPLRKQQQLPKRRRFFSNSAVQETVIRKPLFFKMSTTEKDPPSQWPSALPKKHISPGELSKQKKQHVSPKHNMEEDSQCWLDSAFKKQLSREEPASTHTPLKLEMQQAITKETGFHLRNPLVLPTVTSEAKSLTKEPPSFREQNTSLLKRKSTTHTITLQQAQSEWQEMTDEDRNLFSIKPGSHRKEPIPEFLQNPLPPNENCLISQKLSHSMPFASQKTTSQERAHRKESVASNDDKNFFSQDLFSPFSSADEDTLKFHKSLDFQEQVDRKNDSHKKMFDSQDSVSEEESFLRKLFCKDRCSSTEELSQERTVALEQEFLLIKILNENTSSDVDEPLSHQSPHIQNHSDTTKEALEASEALEAPEALETLEALVASEDLEEPLNILEELSTENMVALMKMLVTEDESTKDSFSGNYTAAREAHAEKSLSLEETSINEAATLKESLSSQEKHRAELVTVLKELLVLMKNPSLKRVALAFQENPSNNVETLLREVLALVENSTADESTLQEKPSTKTDVTPKELLALEENSSNKKANPMDSLSFDHKPDTEMGEIARMVLTDEEYNIDTLYERVLALSQGLIAADQLSFTDLQNFEETKIVDEEEFFKSFLVFENKNSPNMSSNAFESRTDNSSAIMPSSKAFNPVENSNPYVSSSKSFKSTLGAKETEITIQDDSDSLERIEKEGQDPLLNTIYAKDVFNYLKEREEKFLVQKYMDGQMELTSDMRAILVDWLVEIQGSFQMTHETLYLAVKIMDLYLMKAQCKKNHLQLLGSTTYMIAAKFEESYPPSLSEFLFICEDMYEKSDMVSLESSILQTLNFDINIPTAYNFLRRYASCIHASMKTLTLSRFICEMTLQEYEYIEERPSKLAAASFILALYMRNLSNCVPTLEYFTGYKMAELHILVRKLNHLLNFRSHSILKNVFEKYSEETYFEVAKIPPLSKQDLENLLNCALFH
Turning to B7, the binding result is on record as “binds”.
